# Assay results taken from the supplement of paper PMC12823440, “Inhibitors supercharge kinase turnover through native proteolytic circuits” (Nature, 2025).
# The chains behind the UniProt entries cited, without tags or fusion partners. Where a name states a change or a piece, a line headed by the entry shows the natural chain unless it says otherwise.
# UniProt P07947, whole entry, looked up: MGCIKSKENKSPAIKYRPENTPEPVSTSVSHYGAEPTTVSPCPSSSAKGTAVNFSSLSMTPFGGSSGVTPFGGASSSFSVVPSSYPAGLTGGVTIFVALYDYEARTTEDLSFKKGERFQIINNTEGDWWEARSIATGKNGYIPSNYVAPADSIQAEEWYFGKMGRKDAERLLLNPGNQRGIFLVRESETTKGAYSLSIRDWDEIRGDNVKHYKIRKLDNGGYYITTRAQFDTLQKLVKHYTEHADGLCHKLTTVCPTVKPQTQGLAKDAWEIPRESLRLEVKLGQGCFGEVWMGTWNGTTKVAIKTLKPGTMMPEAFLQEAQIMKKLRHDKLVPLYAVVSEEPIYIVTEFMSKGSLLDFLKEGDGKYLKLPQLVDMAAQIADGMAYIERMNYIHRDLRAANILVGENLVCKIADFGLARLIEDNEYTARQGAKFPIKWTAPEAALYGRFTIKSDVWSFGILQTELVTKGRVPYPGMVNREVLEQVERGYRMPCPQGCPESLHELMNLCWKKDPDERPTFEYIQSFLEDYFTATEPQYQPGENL
# UniProt P43403: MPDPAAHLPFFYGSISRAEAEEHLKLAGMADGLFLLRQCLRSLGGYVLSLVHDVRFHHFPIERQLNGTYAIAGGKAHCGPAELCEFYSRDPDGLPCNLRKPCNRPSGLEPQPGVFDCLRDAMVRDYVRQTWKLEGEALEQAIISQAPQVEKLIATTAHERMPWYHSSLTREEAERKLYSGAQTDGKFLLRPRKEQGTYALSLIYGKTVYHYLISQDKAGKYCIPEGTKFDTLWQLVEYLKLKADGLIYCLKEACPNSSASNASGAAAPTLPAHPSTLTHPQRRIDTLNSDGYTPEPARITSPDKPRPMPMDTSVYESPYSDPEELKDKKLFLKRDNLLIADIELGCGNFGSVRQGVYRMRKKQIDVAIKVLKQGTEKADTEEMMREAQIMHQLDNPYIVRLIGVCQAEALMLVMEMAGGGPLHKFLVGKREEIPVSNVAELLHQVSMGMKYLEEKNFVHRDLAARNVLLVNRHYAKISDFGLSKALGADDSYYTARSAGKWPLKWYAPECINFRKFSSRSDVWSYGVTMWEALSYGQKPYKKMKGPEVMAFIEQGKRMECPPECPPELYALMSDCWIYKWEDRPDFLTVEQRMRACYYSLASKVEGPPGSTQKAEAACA
# UniProt P11802: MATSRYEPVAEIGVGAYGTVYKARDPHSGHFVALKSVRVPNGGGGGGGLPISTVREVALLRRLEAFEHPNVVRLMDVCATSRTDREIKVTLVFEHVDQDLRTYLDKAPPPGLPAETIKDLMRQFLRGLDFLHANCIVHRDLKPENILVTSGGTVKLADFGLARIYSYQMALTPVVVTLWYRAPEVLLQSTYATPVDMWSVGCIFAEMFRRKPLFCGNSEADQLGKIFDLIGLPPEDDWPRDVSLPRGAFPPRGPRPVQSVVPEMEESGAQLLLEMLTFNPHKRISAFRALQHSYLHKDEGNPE
# UniProt P50613: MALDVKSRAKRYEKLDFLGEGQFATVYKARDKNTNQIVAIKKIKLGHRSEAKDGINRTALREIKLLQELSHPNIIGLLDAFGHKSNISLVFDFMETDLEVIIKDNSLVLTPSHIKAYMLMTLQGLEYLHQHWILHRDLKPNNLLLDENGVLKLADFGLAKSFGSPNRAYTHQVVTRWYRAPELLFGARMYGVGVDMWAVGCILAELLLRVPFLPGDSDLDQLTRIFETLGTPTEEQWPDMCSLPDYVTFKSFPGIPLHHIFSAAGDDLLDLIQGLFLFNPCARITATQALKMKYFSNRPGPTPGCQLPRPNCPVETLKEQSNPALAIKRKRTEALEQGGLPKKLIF
# UniProt P50750, whole entry: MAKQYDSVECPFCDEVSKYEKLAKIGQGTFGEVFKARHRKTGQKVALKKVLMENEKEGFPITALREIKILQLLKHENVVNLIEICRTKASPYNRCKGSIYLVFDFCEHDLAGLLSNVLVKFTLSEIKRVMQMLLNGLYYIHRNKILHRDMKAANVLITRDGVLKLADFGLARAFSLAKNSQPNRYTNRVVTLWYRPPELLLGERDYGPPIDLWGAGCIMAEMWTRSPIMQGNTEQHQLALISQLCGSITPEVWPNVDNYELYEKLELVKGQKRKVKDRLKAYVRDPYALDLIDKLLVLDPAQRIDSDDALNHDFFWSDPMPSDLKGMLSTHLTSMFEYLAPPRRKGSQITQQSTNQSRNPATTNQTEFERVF
# Structures can show the parent of a compound that is named as a salt. Some of the results follow. The calls rarely recur for the same compound in another form.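 In K562 cells expressing nanoluciferase-fused kinases, luminescence was recorded at 4 h intervals between 2 and 18 h, normalized as percent of control with DMSO at 100% and a positive control at 0%. A significant (2 sigma) signal drop marks a time point as decreased. The authors' rule for a hit is not shown and takes in more than the number of time points.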
# Columns and labels:
# Conditions in all cases: K562; 2-18 h
# YES1 = YES1 (UniProt P07947); assay: number of time points (of 5) at which kinase-Nluc abundance scored as decreased, DMSO-normalised (count); higher = more persistent destabilization
# ZAK = ZAK (UniProt Q9NYL2); assay: as above
# ZAP70 = ZAP70 (UniProt P43403); assay: as above
# CDK4 = CDK4 (UniProt P11802); assay: number of time points (of 4; 2 h point missing) at which kinase-Nluc abundance scored as decreased, DMSO-normalised (count); higher = more persistent destabilization
# CDK7 = CDK7 (UniProt P50613); assay: as above
# CDK9 = CDK9 (UniProt P50750); assay: as above
SMILES,number of time points (YES1),number of time points (ZAK),number of time points (ZAP70),number of time points (CDK4),number of time points (CDK7),number of time points (CDK9)
CCOC(=O)N1C/C(=C/c2ccccc2F)C(=O)/C(=C\c2ccccc2F)C1 (2.5 µM),0,0,0,0,0,0
Cc1ccn2c(C(=O)C(=O)c3ccccc3)c(-c3ccccc3)nc2c1 (10 µM),0,0,0,0,0,0
COc1cc(-c2cn[nH]c2)ccc1C(=O)Nc1ccc2c(c1)CCNCC2 (10 µM),0,0,0,0,0,0
COc1ncccc1-c1cnn2ccc(N3CCN(C(=O)OC(C)C)CC3)nc12 (10 µM),0,0,0,0,0,0
O=C(Nc1nc2ccccc2[nH]1)c1cccc([N+](=O)[O-])c1 [IRAK-4 protein kinase inhibitor 2] (10 µM),0,0,0,0,0,0
CC/C(=N\NC(=O)c1ccnc(NCCCN2CCOCC2)c1)c1ccc(Cl)cc1O (2.5 µM),0,0,0,0,0,0
N#CC(c1ccnc(OCc2ccc(CN3CCOCC3)cc2)n1)c1nc2ccccc2s1 (stereo not drawn) [Bentamapimod] (2.5 µM),0,0,0,0,0,0
CC(C)(C[C@H](N)C(=O)O)C(F)F [NV-5138 (hydrochloride)] (10 µM),0,0,0,0,0,0
C#Cc1cccc(Nc2ncnc3cc(OC)c(OCCCCCCC(=O)NO)cc23)c1 (2.5 µM),0,0,0,0,0,0
CN1C(=O)[C@@H](NC(=O)c2n[nH]c(Cc3ccccc3)n2)COc2ccccc21 (10 µM),0,0,0,0,0,0
Cn1cc(C2=C(c3cccc(N)c3)C(=O)NC2=O)c2ccccc21 (10 µM),0,0,0,0,0,0
CC(C)c1cccc(C(C)C)c1N1C(=O)c2ccc(N)cc2C1=O (2.5 µM),0,0,0,0,0,0
CCCCCCCCCCCCCCCCOP(=O)([O-])OCC[N+](C)(C)C [Miltefosine] (10 µM),0,0,0,0,0,0
C=CC(=O)Nc1cc(Nc2nccc(-n3cc(CN(C)C)c(-c4ccccc4)n3)n2)c(OC)cc1N1CCOCC1 [Lazertinib] (10 µM),0,0,0,0,0,0
O=C(CNc1cccc(Cl)c1)NC1CCCN(c2ncnc3[nH]ccc23)C1 (stereo not drawn) (10 µM),0,0,0,0,0,0
COc1cc(N(C)CCN(C)C)c(N)cc1Nc1nccc(-c2cn(C)c3ccccc23)n1 [Mutated EGFR-IN-1] (10 µM),0,0,0,0,0,0
C=CC(=O)N1C(=O)CC(c2ccc(F)cc2)Sc2ccccc21 (stereo not drawn) [GSK-3β inhibitor 3] (10 µM),1,0,0,0,2,0

# Just number of time points (CDK4), number of time points (YES1) and number of time points (ZAP70), for 3 of the compounds above:
SMILES,number of time points (CDK4),number of time points (YES1),number of time points (ZAP70)
Cn1cc(C2=C(c3cccc(N)c3)C(=O)NC2=O)c2ccccc21 (10 µM),0,0,0
CCCCCCCCCCCCCCCCOP(=O)([O-])OCC[N+](C)(C)C [Miltefosine] (10 µM),0,0,0
C=CC(=O)N1C(=O)CC(c2ccc(F)cc2)Sc2ccccc21 (stereo not drawn) [GSK-3β inhibitor 3] (10 µM),0,1,0

# Carrying on:

SMILES,number of time points (YES1),number of time points (ZAK),number of time points (ZAP70),number of time points (CDK4),number of time points (CDK7),number of time points (CDK9)
O=[N+]([O-])c1ccc(Nc2nc(N3CCOCC3)nc(N3CCOCC3)n2)cc1 (10 µM),0,0,0,0,0,0
CN(C)S(=O)(=O)c1ccc2c(c1)/C(=C/c1cc3c([nH]1)CCCC3)C(=O)N2 (2.5 µM),0,0,0,0,0,0
CC(C)=CCc1c(-c2ccc(O)cc2O)oc2c3c(cc(O)c2c1=O)OC(C)(C)C=C3 [Morusin] (2.5 µM),0,0,0,0,0,0
Nc1ncnc2c1c(COc1cccc(Cl)c1)nn2C1CCOCC1 (10 µM),0,0,0,0,0,0
c1ccc(-c2nc3c(c(-n4ccc5cnccc54)n2)CCC3)nc1 (10 µM),0,0,0,0,0,0
CC1(C)Cc2c(sc(NC(=S)NC(=O)c3ccccc3)c2C(=O)O)CO1 (10 µM),0,0,0,0,0,0
C=CCc1ccc(O)c(-c2ccc(O)c(CC=C)c2)c1 [Honokiol] (10 µM),0,0,0,0,0,0
CN(C)CCC=C1c2ccccc2CCc2ccccc21 [Amitriptyline (hydrochloride)] (2.5 µM),0,0,0,0,0,0
CC(C)C[C@@H](C(=O)Nc1ccn(C[C@@H](O)CO)n1)N1CC(Oc2ccccc2Cl)=CC1=O [Dorzagliatin] (10 µM),0,0,0,0,0,0
CS(=O)(=O)c1ccc(-c2cnc(N)c(-c3ccc(C(F)(F)F)nc3)c2)cc1 (10 µM),0,0,0,0,0,0
O=C(N[C@@H](C1CC1)C(F)(F)F)c1cc(-c2cnn3cc(-c4ccc(F)cc4)cnc23)cs1 (10 µM),0,0,0,0,0,0
FC(F)(F)c1ccc(/C=C/c2nc(COc3ccc(CCCCn4ccnn4)cc3)co2)cc1 [Mubritinib] (10 µM),0,0,0,0,1,0
Cc1ncc(NC(=O)NC2c3ccccc3-c3ccccc32)c(-c2ccccc2)n1 (10 µM),0,0,0,0,0,0
O=C(NCc1cccc(O)c1)Nc1nc(-c2ccncc2)cs1 (10 µM),0,0,0,0,0,0
CCCNC(=O)Nc1ccc(Oc2ncnc3cc(OC)c(OC)cc23)cc1Cl (2.5 µM),0,0,0,0,0,0
Cn1cc(-c2cnc3cnn(S(=O)(=O)c4cnc5ccc(-c6cnn(C)c6)cn45)c3c2)cn1 [Glumetinib] (10 µM),0,0,0,0,0,0
